These are yes or no findings as the source states them, for the method shown. Binding seen in cells or lysates may run through a third protein. A result given as binding can be weak or reduced; the word gives no strength.
Molecular target: Endophilin (endogenous, precipitated with anti-Endophilin A2 clone A-11) (human (endogenous in RPE1)) (UniProt Q99961)
Assay: co-IP; anti-Endophilin antibody (clone A-11) coupled to hydrazide magnetic beads; fraction 7 of a sucrose gradient of membranes from RPE1 cells stimulated with 10% FBS (20% final) for 10 min; overnight 4 °C; elution with glycine pH 2; immunoblot

The chains behind the UniProt entries cited, without tags or fusion partners.
UniProt Q99961: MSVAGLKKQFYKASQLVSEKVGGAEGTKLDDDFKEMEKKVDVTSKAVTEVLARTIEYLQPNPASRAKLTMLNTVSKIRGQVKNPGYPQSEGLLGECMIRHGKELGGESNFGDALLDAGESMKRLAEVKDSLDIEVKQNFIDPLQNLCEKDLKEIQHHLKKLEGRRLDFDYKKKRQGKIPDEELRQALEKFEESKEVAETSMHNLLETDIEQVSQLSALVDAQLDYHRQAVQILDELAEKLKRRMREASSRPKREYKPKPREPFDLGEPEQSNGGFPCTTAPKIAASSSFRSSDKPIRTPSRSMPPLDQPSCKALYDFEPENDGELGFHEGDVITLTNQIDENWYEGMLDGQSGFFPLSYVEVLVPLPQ

binding: binds
Substance: Bin1 (endogenous) (from UniProt O00499-7)

Source: PMC8065113
